Laboratory results from publication PMC5078794.
No constants are given. Whether binding was seen depends on the method and setting. In cells and extracts the contact can be indirect. Some entries that bind do so weakly or less than the wild type.

The chains behind the UniProt entries cited, without tags or fusion partners. Where a name states a change or a piece, a line headed by the entry shows the natural chain unless it says otherwise.
UniProt P49715: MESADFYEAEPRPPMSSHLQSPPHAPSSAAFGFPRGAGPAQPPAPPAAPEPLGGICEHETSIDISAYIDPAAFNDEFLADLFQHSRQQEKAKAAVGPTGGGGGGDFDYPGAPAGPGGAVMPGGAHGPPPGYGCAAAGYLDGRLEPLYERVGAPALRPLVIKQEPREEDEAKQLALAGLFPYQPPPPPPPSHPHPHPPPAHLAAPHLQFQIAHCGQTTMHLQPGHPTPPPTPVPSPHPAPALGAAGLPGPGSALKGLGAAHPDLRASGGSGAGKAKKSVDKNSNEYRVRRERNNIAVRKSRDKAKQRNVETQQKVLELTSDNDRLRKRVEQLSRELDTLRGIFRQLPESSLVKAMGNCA
UniProt P51532: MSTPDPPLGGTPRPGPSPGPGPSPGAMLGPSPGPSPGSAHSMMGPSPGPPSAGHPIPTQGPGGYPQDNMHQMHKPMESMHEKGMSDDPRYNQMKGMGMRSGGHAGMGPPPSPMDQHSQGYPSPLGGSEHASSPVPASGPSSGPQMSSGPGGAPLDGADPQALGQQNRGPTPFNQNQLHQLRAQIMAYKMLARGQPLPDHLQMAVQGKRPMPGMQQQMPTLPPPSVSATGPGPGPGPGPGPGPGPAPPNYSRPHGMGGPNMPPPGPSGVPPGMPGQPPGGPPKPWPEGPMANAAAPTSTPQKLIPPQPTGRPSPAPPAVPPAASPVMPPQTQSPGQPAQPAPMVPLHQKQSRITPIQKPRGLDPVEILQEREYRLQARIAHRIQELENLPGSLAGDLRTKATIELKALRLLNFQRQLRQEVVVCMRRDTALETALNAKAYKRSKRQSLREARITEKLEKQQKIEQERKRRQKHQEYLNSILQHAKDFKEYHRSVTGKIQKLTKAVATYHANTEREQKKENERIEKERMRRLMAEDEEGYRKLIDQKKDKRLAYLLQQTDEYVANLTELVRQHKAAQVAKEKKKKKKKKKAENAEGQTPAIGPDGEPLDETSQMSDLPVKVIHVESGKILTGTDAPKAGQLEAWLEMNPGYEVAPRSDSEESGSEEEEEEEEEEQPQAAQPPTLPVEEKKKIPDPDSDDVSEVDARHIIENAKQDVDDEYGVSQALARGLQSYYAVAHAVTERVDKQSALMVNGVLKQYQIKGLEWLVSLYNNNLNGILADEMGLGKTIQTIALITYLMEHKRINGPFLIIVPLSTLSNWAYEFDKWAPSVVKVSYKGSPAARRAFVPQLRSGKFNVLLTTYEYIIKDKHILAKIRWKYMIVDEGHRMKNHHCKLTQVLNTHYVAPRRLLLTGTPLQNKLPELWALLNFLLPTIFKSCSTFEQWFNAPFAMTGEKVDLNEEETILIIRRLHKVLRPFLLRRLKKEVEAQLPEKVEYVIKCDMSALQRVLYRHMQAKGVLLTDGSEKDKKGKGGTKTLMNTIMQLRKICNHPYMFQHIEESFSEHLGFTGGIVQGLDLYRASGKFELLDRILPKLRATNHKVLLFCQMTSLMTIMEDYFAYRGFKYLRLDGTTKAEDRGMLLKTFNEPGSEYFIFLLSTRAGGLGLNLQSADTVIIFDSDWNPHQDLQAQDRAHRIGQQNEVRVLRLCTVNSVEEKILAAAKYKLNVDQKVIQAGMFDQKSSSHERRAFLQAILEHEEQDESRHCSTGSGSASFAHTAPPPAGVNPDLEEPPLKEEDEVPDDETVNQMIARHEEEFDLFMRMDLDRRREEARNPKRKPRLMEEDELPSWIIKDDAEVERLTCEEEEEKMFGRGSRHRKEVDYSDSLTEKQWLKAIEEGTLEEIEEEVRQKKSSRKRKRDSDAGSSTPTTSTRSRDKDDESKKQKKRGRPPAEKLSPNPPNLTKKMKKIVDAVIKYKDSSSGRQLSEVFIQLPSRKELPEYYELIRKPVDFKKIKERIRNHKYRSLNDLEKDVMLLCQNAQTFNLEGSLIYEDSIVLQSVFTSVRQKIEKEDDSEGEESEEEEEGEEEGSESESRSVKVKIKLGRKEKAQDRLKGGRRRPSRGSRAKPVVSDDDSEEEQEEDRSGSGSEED
UniProt P51531: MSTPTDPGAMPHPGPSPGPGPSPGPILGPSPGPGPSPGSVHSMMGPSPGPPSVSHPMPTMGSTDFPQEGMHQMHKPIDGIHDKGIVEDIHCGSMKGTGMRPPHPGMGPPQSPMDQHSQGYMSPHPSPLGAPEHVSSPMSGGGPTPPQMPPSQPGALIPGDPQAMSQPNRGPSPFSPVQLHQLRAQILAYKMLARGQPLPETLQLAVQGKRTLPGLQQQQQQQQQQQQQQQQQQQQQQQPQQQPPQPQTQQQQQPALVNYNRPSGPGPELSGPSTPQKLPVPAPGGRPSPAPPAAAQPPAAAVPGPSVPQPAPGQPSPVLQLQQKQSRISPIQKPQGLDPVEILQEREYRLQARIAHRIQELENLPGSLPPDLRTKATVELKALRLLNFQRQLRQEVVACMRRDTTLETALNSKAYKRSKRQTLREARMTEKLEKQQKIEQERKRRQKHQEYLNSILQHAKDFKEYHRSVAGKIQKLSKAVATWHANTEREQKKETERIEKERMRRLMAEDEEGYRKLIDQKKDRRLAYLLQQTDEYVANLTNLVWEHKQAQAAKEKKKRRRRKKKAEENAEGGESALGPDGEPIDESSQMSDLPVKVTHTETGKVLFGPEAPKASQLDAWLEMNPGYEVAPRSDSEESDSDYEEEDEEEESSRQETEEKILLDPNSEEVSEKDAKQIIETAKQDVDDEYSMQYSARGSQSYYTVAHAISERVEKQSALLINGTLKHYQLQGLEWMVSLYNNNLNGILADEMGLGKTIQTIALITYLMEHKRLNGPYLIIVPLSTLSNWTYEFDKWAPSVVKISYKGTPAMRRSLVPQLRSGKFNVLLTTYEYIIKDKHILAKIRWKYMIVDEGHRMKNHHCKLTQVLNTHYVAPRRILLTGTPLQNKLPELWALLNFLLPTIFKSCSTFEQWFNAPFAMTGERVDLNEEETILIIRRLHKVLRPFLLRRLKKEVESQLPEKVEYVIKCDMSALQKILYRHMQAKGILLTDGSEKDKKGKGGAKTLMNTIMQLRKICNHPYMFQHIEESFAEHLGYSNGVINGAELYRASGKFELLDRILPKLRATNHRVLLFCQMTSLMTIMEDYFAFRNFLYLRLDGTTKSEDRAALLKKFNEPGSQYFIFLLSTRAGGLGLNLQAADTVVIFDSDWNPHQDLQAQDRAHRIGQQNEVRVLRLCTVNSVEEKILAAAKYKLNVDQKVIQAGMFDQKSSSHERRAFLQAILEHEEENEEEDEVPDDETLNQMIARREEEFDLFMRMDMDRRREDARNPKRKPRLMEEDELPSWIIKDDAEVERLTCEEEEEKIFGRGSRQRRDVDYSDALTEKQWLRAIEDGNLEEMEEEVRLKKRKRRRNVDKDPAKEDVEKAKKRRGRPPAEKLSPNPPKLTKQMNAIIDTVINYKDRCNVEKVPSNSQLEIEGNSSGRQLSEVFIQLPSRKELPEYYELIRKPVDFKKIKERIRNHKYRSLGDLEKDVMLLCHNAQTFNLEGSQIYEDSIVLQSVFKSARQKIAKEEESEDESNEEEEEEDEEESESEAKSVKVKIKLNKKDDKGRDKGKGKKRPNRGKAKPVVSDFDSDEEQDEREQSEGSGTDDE
UniProt O15054: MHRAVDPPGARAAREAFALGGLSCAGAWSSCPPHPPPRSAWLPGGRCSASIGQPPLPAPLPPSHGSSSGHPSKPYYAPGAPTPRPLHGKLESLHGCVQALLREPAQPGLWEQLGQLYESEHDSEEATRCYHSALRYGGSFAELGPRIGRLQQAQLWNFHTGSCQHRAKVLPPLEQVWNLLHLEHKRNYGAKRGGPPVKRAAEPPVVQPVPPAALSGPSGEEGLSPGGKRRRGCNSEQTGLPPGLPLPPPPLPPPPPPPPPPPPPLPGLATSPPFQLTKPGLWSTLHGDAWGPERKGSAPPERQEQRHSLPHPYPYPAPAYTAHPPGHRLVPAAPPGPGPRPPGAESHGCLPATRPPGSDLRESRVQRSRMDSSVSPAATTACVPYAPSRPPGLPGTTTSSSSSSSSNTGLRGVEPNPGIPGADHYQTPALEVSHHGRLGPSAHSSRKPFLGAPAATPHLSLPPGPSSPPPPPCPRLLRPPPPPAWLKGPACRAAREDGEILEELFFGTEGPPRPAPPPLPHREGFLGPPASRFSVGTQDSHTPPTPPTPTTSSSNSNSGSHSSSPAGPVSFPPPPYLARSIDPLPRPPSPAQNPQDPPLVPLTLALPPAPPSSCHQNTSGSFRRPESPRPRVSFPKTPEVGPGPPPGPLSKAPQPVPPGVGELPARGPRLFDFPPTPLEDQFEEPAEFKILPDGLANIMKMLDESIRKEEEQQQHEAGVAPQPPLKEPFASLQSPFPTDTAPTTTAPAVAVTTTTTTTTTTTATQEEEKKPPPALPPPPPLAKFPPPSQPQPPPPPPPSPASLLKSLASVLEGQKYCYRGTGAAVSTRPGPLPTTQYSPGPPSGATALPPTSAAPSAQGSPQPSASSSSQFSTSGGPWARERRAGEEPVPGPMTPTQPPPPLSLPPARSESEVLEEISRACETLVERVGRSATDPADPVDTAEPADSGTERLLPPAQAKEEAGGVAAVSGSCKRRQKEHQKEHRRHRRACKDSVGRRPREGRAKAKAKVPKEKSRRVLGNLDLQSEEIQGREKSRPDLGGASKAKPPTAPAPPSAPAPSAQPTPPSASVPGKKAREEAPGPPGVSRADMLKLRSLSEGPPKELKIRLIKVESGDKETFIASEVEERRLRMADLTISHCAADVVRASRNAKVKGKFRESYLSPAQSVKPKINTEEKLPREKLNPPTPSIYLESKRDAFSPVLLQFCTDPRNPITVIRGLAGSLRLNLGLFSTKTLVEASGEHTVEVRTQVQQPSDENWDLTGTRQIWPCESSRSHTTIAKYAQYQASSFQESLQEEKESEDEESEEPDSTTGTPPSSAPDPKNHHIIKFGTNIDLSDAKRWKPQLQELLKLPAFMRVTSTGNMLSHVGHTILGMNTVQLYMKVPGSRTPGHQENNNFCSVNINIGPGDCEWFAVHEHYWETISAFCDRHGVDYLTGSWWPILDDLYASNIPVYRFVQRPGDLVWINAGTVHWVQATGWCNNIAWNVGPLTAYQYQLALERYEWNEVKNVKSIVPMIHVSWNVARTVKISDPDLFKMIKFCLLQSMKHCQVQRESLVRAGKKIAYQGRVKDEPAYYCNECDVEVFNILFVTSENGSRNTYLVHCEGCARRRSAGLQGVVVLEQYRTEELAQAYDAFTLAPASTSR

molecular target: CAAT enhancer-binding protein alpha (C/EBPα) (human (endogenous in Huh7)) (UniProt P49715); assay: co-IP; whole cell extracts of Huh7 cells transfected with wild-type or H1390A Jmjd3, immunoprecipitated with anti-C/EBPα, Western blot; lysis buffer 50 mM Tris-HCl pH 7.4, 350 mM NaCl, 30 mM MgCl2, 10 mM EDTA, 0.5% NP-40, 20% glycerol

| Substance | binding |
| --- | --- |
| Brg1, ATPase subunit of the SWI/SNF chromatin remodeling complex (from UniProt P51532 1-1647) | no binding |
| Brm, ATPase subunit of the SWI/SNF chromatin remodeling complex (from UniProt P51531 1-1590) | binds |
| Jmjd3 H1390A demethylase defective mutant (from UniProt O15054 1-1643) | binds |
| Jumonji domain containing 3 (Jmjd3), wild type (from UniProt O15054 1-1643) | binds |
